Test results published in PMC7819943, “Rice protein-binding microarrays: a tool to detect cis-acting elements near promoter regions in rice”.
The other results are listed elsewhere or left out.

Target: T1, OsSMF1 (Oryza sativa, UniProt Q6ZLB0 1-436)
T1 sequence: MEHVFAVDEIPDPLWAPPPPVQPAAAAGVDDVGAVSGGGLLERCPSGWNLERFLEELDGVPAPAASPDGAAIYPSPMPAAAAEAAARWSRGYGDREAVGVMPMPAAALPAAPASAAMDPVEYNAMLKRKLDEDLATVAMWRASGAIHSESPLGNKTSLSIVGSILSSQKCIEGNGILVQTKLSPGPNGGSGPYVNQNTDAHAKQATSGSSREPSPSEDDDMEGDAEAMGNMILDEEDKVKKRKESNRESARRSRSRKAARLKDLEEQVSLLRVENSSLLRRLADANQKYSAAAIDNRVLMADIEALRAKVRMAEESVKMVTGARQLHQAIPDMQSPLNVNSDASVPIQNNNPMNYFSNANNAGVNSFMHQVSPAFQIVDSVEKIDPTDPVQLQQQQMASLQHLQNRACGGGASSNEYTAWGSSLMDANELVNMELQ
Test: protein-binding microarray (RPBM); PBS, 2% BSA, 51.3 ng/ul salmon testes DNA, 50 uM zinc acetate, 200 nM TF, 25 C, 1 h; high values mean tight binding
Conditions: protein: recombinant; tags: N-terminal polyhistidine and DsRed monomer fusion (pET32a); chain copies: 2; label: CyDye5-dUTP incorporated in the synthesized complementary strand; 3' TTTTT single-stranded linker to array surface; dsDNA, one strand shown
How it was run: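 A custom Agilent array was converted to double-stranded form by primer extension with Cy5-dUTP and blocked with 2% BSA. Protein at 200 nM in PBS with 2% BSA, salmon testes DNA and 50 µM zinc acetate was applied for 1 h at 25 °C, followed by washing. The proteins were polyhistidine–DsRed N-terminal fusions of transcription factors, expressed in E. coli BL21-CodonPlus and Ni–NTA-purified. The binding signal is per-feature fluorescence intensity (arbitrary units) from an Axon 4000B scanner.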

Sequence | binding signal
CCGATGTGAAACTGTGACGAATCGTGCCACATTTCAACTGCGGAGTCACCTAGTGCAG | 5470 fluorescence intensity (a.u.)
AACCCTTTTCATCCTGTCACGCCACCGAGGCACCCGCCTCCGGAGTCACCTAGTGCAG | 6200 fluorescence intensity (a.u.)
ATGTTATCGTGCTAGTGTCAGCACATTCTCACTGATATTACGGAGTCACCTAGTGCAG | 5330 fluorescence intensity (a.u.)
AAACACAATTGTGCCACCTATACAGACTGTTTTGGGGAATCGGAGTCACCTAGTGCAG | 3940 fluorescence intensity (a.u.)
TGCAGCCTACAGGCACGAACACGTCAGCAGTCCACGCCTCCGGAGTCACCTAGTGCAG | 16900 fluorescence intensity (a.u.)
ACCGCCGCGTGCTGCTGACGTGGCAGTCATCTCAGCCGTCCGGAGTCACCTAGTGCAG | 34300 fluorescence intensity (a.u.)
CAGCAGCAGCCACGCGACACGCTCCTCCACTCCTCTCCCGCGGAGTCACCTAGTGCAG | 3770 fluorescence intensity (a.u.)
TTGTGCTCGATGTGGCTTAGTCATGAAAGCCAATAGCCTTCGGAGTCACCTAGTGCAG | 3640 fluorescence intensity (a.u.)
GATTGCAGCTAAGAAAGTCGCAGCCAAGAAGTATATAACGCGGAGTCACCTAGTGCAG | 24000 fluorescence intensity (a.u.)
ACTGACGAGTCGACGGGAAACGGTGACGCGGCGGCCTGAGCGGAGTCACCTAGTGCAG | 8740 fluorescence intensity (a.u.)
CGTCGCACTCACACAACTTGTGTGCAGCCCTGACACACAACGGAGTCACCTAGTGCAG | 3970 fluorescence intensity (a.u.)
TAAGGTTGCCAACCTTAGCTGTTCGTTTTCCACGCGCACGCGGAGTCACCTAGTGCAG | 3230 fluorescence intensity (a.u.)
GATGCTGACGGGTTTGGCTGTCAAGATGCATGTATCTATCCGGAGTCACCTAGTGCAG | 3600 fluorescence intensity (a.u.)
TGTTCGGCACCACATGTTCTCAACTCTTCTCCCTCGTGTTCGGAGTCACCTAGTGCAG | 3160 fluorescence intensity (a.u.)
TCGGCTGCGCGAGCGCATAGCCTCGGTTTTAATAGTCGGCCGGAGTCACCTAGTGCAG | 17000 fluorescence intensity (a.u.)
ATATTGATAACATATATTCACAACGATGATTCAGCATTGTCGGAGTCACCTAGTGCAG | 3380 fluorescence intensity (a.u.)
AGAGAGACTGACCGCCGGGACCCACAAGAGAGAACCACGTCGGAGTCACCTAGTGCAG | 30700 fluorescence intensity (a.u.)
TATATATATATATATATATATATATAATCTACTTGGCATGCGGAGTCACCTAGTGCAG | 4020 fluorescence intensity (a.u.)
TGGCTTGGCTTCCTAATTTGTTACTAATGAAATCGGTTAGCGGAGTCACCTAGTGCAG | 3160 fluorescence intensity (a.u.)
GCCATGAGTCATCAGTCATGACTCATGACACGATGGGCACCGGAGTCACCTAGTGCAG | 12900 fluorescence intensity (a.u.)
AATGATATTGAAGGGATAAAACTTCTTGTTTTACGTGTTGCGGAGTCACCTAGTGCAG | 3260 fluorescence intensity (a.u.)

Sequence | binding signal
CAGCTAGCTGCTCCAACTTCGCGTTGGTGCTTTAGTGACGCGGAGTCACCTAGTGCAG | 3540 fluorescence intensity (a.u.)
ATAGTATAAAAGTAATGTGATGTGGCTTTATGAGAGAAAACGGAGTCACCTAGTGCAG | 3780 fluorescence intensity (a.u.)
AGCCCGATGATAAAATTGTCGTCCGCTCGCGCCAGCTCATCGGAGTCACCTAGTGCAG | 5860 fluorescence intensity (a.u.)
AGGTCTCCCACTCCTAGTCATCATCATCATCATCTCCCTACGGAGTCACCTAGTGCAG | 7430 fluorescence intensity (a.u.)
TTCATATCATATACGTACACGTGGAATAATTTGTAATTATCGGAGTCACCTAGTGCAG | 9010 fluorescence intensity (a.u.)
CCAGGCACCGACCTGTAGTTGCATCAGCAAACCATGGCTGCGGAGTCACCTAGTGCAG | 4690 fluorescence intensity (a.u.)
AAGAATCTTTTAGTATTTGGTGCATGACAAGGCACTGATGCGGAGTCACCTAGTGCAG | 4480 fluorescence intensity (a.u.)
CAATGAGGCTGATGGTGTGGAGGATTAGGTGTAGCCTTGGCGGAGTCACCTAGTGCAG | 5200 fluorescence intensity (a.u.)
CTGCGACGACGAGATCTTGTCTAGTAGACCGTGAATATATCGGAGTCACCTAGTGCAG | 3330 fluorescence intensity (a.u.)
CTATCATAATTCATAAATCATCGTATACGCGCTTGTCCAGCGGAGTCACCTAGTGCAG | 3910 fluorescence intensity (a.u.)
ACACTAACACGTGGCGCAATCCTCATCTCTCGCTCCGGATCGGAGTCACCTAGTGCAG | 11700 fluorescence intensity (a.u.)
GCCCTCGGCGGCTCGGCCGCTTGGCGCCACGTGTGCGGTGCGGAGTCACCTAGTGCAG | 19000 fluorescence intensity (a.u.)
ACCTCGTGGCCACTGTTGCATGGTCAACTTTCCCACCCATCGGAGTCACCTAGTGCAG | 3420 fluorescence intensity (a.u.)
GGTTCCTGGCATCCAATGGAAATTTGTAACCACCTCATCACGGAGTCACCTAGTGCAG | 4630 fluorescence intensity (a.u.)
CGCGGGAATCAATCAATCGCCGTTCGCGTCGCGCCACGAGCGGAGTCACCTAGTGCAG | 4060 fluorescence intensity (a.u.)
CCCCATTTCGTGACGCGTCCTGGGATCACGAAGCAGATACCGGAGTCACCTAGTGCAG | 4880 fluorescence intensity (a.u.)
GCCGCCGCCGGAGTCCAGCCGCCGCACCTCCGCGCCCCGCCGGAGTCACCTAGTGCAG | 28400 fluorescence intensity (a.u.)
TGCCAGGCGTTGGTGCACGTGGCGTCAACAGCGCGACGGTCGGAGTCACCTAGTGCAG | 7400 fluorescence intensity (a.u.)
CATCCAGGCGTGTATAACAACACATCACCACCATTGCAAACGGAGTCACCTAGTGCAG | 4140 fluorescence intensity (a.u.)
CGCTGCCTTCGCCGTCGTGGCTTTGCGCCGCCTCCGCCAACGGAGTCACCTAGTGCAG | 4150 fluorescence intensity (a.u.)
TAATCTCTACAGTACAAGTTCTCAAGAAAATTACACTTTGCGGAGTCACCTAGTGCAG | 3230 fluorescence intensity (a.u.)

A different layout for some results above.
Sequence	binding signal
CAGCTAGCTGCTCCAACTTCGCGTTGGTGCTTTAGTGACGCGGAGTCACCTAGTGCAG	3540 fluorescence intensity (a.u.)
ATAGTATAAAAGTAATGTGATGTGGCTTTATGAGAGAAAACGGAGTCACCTAGTGCAG	3780 fluorescence intensity (a.u.)
